Test results taken from PMC8973010.
Results are given in words; binding and its absence hold for the method and conditions named. In cells and extracts the contact can be indirect. These calls come from enrichment with a bait or labelling near it, and not all partners need be listed. Where a sequence is shown, tags or fusion partners need not be part of it.

Protein sequences, listed by entry. Tags and fused reporters are not part of them. Residues count along the entry.
UniProt Q9NYJ7, residues 27-618: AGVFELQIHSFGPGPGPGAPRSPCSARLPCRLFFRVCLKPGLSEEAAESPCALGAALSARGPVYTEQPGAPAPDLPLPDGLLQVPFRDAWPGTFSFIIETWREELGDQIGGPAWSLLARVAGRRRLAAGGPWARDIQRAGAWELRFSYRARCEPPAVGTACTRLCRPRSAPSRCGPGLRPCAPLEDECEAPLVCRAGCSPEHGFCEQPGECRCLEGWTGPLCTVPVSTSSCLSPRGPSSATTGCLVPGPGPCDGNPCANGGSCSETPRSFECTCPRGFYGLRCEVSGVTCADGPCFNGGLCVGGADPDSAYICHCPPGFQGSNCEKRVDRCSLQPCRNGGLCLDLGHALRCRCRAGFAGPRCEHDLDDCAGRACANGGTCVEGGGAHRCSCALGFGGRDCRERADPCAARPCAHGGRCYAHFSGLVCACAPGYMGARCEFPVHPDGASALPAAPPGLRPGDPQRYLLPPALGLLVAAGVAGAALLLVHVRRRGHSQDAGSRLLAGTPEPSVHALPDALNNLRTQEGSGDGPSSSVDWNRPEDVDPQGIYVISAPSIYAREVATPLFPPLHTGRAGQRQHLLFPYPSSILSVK
UniProt P11142: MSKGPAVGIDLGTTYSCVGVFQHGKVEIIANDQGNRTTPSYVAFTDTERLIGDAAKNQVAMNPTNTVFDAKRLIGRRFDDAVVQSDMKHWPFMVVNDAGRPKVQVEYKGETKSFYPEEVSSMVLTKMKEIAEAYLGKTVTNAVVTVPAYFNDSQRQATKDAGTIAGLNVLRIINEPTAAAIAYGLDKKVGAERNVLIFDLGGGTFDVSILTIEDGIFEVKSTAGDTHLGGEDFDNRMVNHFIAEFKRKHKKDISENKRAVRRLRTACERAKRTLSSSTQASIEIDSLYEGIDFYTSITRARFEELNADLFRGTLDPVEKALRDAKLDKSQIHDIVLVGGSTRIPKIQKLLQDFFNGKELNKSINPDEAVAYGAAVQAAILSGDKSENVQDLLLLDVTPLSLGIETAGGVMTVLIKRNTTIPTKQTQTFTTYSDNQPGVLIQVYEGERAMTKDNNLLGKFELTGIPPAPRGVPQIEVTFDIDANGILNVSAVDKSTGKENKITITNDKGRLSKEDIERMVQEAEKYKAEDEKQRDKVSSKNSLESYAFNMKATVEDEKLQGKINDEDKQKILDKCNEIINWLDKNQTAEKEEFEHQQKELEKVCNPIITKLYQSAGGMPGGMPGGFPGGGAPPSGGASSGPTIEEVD
UniProt P08174, residues 35-353: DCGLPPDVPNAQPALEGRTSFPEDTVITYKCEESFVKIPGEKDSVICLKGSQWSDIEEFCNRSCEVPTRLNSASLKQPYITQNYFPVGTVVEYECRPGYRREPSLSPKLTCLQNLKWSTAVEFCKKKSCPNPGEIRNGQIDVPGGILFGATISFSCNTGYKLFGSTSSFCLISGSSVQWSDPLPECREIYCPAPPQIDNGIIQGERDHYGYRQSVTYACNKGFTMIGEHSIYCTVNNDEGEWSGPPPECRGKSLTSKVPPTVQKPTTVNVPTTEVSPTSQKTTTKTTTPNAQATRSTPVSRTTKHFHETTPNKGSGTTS
UniProt P10321, residues 25-366: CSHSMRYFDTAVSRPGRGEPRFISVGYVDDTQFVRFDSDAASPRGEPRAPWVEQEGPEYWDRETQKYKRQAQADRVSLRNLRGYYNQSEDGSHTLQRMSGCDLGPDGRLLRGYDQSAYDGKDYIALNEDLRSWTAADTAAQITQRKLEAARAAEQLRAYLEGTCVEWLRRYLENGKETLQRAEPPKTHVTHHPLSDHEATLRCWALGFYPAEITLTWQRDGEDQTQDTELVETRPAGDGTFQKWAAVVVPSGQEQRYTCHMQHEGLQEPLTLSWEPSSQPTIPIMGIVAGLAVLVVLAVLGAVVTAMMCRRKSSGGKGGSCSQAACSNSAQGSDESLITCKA

B1: histocompatibility minor 13 (protein, UniProt Q8TCT9 1-377)
chain: MDSALSDPHNGSAEAGGPTNSTTRPPSTPEGIALAYGSLLLMALLPIFFGALRSVRCARGKNASDMPETITSRDAARFPIIASCTLLGLYLFFKIFSQEYINLLLSMYFFVLGILALSHTISPFMNKFFPASFPNRQYQLLFTQGSGENKEEIINYEFDTKDLVCLGLSSIVGVWYLLRKHWIANNLFGLAFSLNGVELLHLNNVSTGCILLGGLFIYDVFWVFGTNVMVTVAKSFEAPIKLVFPQDLLEKGLEANNFAMLGLGDVVIPGIFIALLLRFDISLKKNTHTYFYTSFAAYIFGLGLTIFIMHIFKHAQPALLYLVPACIGFPVLVALAKGEVTEMFSYEESNPKDPAAVTESKEGTEASASKGLEKKEK

What follows are molecules tested against delta-like canonical Notch ligand 3 (human (endogenous in MKN45)) (UniProt Q9NYJ7) (assay: affinity purification with mass spectrometry; DLL3 antibody (MAB4315) added to 500 ug MKN45 cell lysate, 4°C overnight; captured on protein A and protein G agarose; washed three times with ice-cold lysis buffer; proteins of the IgG control group and common pollutants excluded).

Row | binding | Molecule
1 | binds | heat shock cognate 71 kDa protein (from UniProt P11142 1-646)
2 | binds | complement decay-accelerating factor (from UniProt P08174 35-353)
3 | binds | human leukocyte antigen class I histocompatibility antigen, C (from UniProt P10321 25-366)
4 | binds | B1
